Test results: PubChem BioAssay AID186 (DTP/NCI, 2004)
The mice bore no tumour; each value counts animals alive of those treated. Survivors were counted at the toxicity check, usually on the fifth day, unless a day is given; later deaths do not show. Schedules are NCI's codes, taken here to give the interval after Q, in days (D) or hours (H), and the number of doses after X. Marks such as (2×) stand for listed records that agree. Some doses were run more than once; the values are given in rising order.

Tested on: B6D2F1 mice, nontumored toxicity test, survival
Assay: NCI In Vivo Anticancer Drug Screen. Data for tumor model Nontumored Animals (Toxicity Test) in B6D2F1 (BDF1) mice
[1] = dose: 1.0 mg/kg/injection, schedule: Q03HX016 (ip), vehicle: saline
[2] = dose: 2.0 mg/kg/injection, schedule: Q03HX016 (ip), vehicle: saline
[3] = dose: 8.0 mg/kg/injection, schedule: Q04DX003 (ip), vehicle: saline
[4] = dose: 8.0 mg/kg/injection, schedule: Q08DX002 (ip), vehicle: saline
[5] = dose: 16.0 mg/kg/injection, schedule: Q01DX009 (oral), vehicle: saline
[6] = dose: 16.0 mg/kg/injection, schedule: Q08DX002 (ip), vehicle: saline

Question: Which results are given for `COc1cc2c[n+](C)c3c4cc5c(cc4ccc3c2cc1OC)OCO5`?
Answer: survivor count [1]: 8 of 8; survivor count (dose: 1.0 mg/kg/injection, schedule: Q03HX024 (ip), vehicle: saline): 8 of 8; survivor count [2]: 8 of 8; survivor count (dose: 2.0 mg/kg/injection, schedule: Q03HX024 (ip), vehicle: saline): 8 of 8; survivor count (dose: 4.0 mg/kg/injection, schedule: Q03HX008 (ip), vehicle: saline): 8 of 8; survivor count (dose: 4.0 mg/kg/injection, schedule: Q03HX016 (ip), vehicle: saline): 8 of 8; survivor count (dose: 4.0 mg/kg/injection, schedule: Q03HX024 (ip), vehicle: saline): 8 of 8; survivor count (dose: 6.25 mg/kg/injection, schedule: Q01DX009 (ip), vehicle: water): 6 of 8; survivor count (dose: 8.0 mg/kg/injection, schedule: Q01DX009 (ip), vehicle: saline): 8 of 8; survivor count (dose: 8.0 mg/kg/injection, schedule: Q03HX008 (ip), vehicle: saline): 8 of 8; survivor count (dose: 8.0 mg/kg/injection, schedule: Q03HX016 (ip), vehicle: saline): 8 of 8; survivor count (dose: 8.0 mg/kg/injection, schedule: Q03HX024 (ip), vehicle: saline): 8 of 8; survivor count [3]: 8 of 8; survivor count [4]: 8 of 8; survivor count (dose: 10.0 mg/kg/injection, schedule: Q01DX009 (ip), vehicle: water): 8 of 8; survivor count (dose: 12.5 mg/kg/injection, schedule: Q01DX009 (ip), vehicle: water): 7 of 8; survivor count (dose: 16.0 mg/kg/injection, schedule: Q01DX009 (ip), vehicle: saline): 8 of 8; survivor count [5]: 8 of 8; survivor count (dose: 16.0 mg/kg/injection, schedule: Q03HX008 (ip), vehicle: saline): 6 of 8; survivor count (dose: 16.0 mg/kg/injection, schedule: Q03HX016 (ip), vehicle: saline): 7 of 8; survivor count (dose: 16.0 mg/kg/injection, schedule: Q03HX024 (ip), vehicle: saline): 8 of 8; survivor count (dose: 16.0 mg/kg/injection, schedule: Q04DX003 (ip), vehicle: saline): 8 of 8; survivor count [6]: 8 of 8; survivor count (dose: 20.0 mg/kg/injection, schedule: Q01DX009 (ip), vehicle: water): 8 of 8; survivor count (dose: 25.0 mg/kg/injection, schedule: Q01DX009 (ip), vehicle: water): 6 of 8; survivor count (dose: 32.0 mg/kg/injection, schedule: Q01DX001 (ip), vehicle: saline): 8 of 8; survivor count (dose: 32.0 mg/kg/injection, schedule: Q01DX009 (ip), vehicle: saline): 8 of 8; survivor count (dose: 32.0 mg/kg/injection, schedule: Q01DX009 (oral), vehicle: saline): 8 of 8; survivor count (dose: 32.0 mg/kg/injection, schedule: Q03HX008 (ip), vehicle: saline): 3 of 8; survivor count (dose: 32.0 mg/kg/injection, schedule: Q03HX024 (ip), vehicle: saline): 2 of 8; survivor count (dose: 32.0 mg/kg/injection, schedule: Q04DX003 (ip), vehicle: saline): 8 of 8; survivor count (dose: 32.0 mg/kg/injection, schedule: Q08DX002 (ip), vehicle: saline): 8 of 8; survivor count (dose: 40.0 mg/kg/injection, schedule: Q01DX009 (ip), vehicle: water): 8 of 8; survivor count (dose: 50.0 mg/kg/injection, schedule: Q01DX009 (ip), vehicle: water): 4 of 8; survivor count (dose: 64.0 mg/kg/injection, schedule: Q01DX001 (ip), vehicle: saline): 8 of 8; survivor count (dose: 64.0 mg/kg/injection, schedule: Q01DX009 (ip), vehicle: saline): 8 of 8; survivor count (dose: 64.0 mg/kg/injection, schedule: Q01DX009 (oral), vehicle: saline): 8 of 8; survivor count (dose: 64.0 mg/kg/injection, schedule: Q03HX008 (ip), vehicle: saline): 1 of 8; survivor count (dose: 64.0 mg/kg/injection, schedule: Q04DX003 (ip), vehicle: saline): 8 of 8; survivor count (dose: 64.0 mg/kg/injection, schedule: Q08DX002 (ip), vehicle: saline): 8 of 8; survivor count (dose: 80.0 mg/kg/injection, schedule: Q01DX009 (ip), vehicle: water): 5 of 8; survivor count (dose: 128.0 mg/kg/injection, schedule: Q01DX001 (ip), vehicle: saline): 8 of 8; survivor count (dose: 128.0 mg/kg/injection, schedule: Q01DX009 (ip), vehicle: saline): 8 of 8; survivor count (dose: 128.0 mg/kg/injection, schedule: Q01DX009 (oral), vehicle: saline): 8 of 8; survivor count (dose: 128.0 mg/kg/injection, schedule: Q04DX003 (ip), vehicle: saline): 8 of 8; survivor count (dose: 128.0 mg/kg/injection, schedule: Q08DX002 (ip), vehicle: saline): 8 of 8; survivor count (dose: 256.0 mg/kg/injection, schedule: Q01DX001 (ip), vehicle: saline): 8 of 8; survivor count (dose: 256.0 mg/kg/injection, schedule: Q01DX009 (oral), vehicle: saline): 8 of 8; survivor count (dose: 256.0 mg/kg/injection, schedule: Q04DX003 (ip), vehicle: saline): 7 of 8; survivor count (dose: 512.0 mg/kg/injection, schedule: Q01DX001 (ip), vehicle: saline): 8 of 8; survivor count (dose: 512.0 mg/kg/injection, schedule: Q01DX009 (oral), vehicle: saline): 7 of 8

Question: For `O=C1N[C@@H]([C@H]2CC[C@H](Cl)CN2)C(=O)N[C@H]1[C@H]1CC[C@H](Cl)CN1`, which survivor count (dose: 0.25 mg/kg/injection, schedule: Q03HX008 (ip), vehicle: saline) is on record?
Answer: 8 of 8

Question: And the survivor count (dose: 0.25 mg/kg/injection, schedule: Q03HX016 (ip), vehicle: saline)?
Answer: 8 of 8

Question: What about the survivor count (dose: 0.5 mg/kg/injection, schedule: Q01DX009 (ip), vehicle: saline) of the same molecule?
Answer: 8 of 8

Question: And the survivor count (dose: 0.5 mg/kg/injection, schedule: Q01DX009 (sc), vehicle: saline)?
Answer: 8 of 8

Question: What about the survivor count (dose: 0.5 mg/kg/injection, schedule: Q03HX008 (ip), vehicle: saline) of the same molecule?
Answer: 8 of 8

Question: And the survivor count (dose: 0.5 mg/kg/injection, schedule: Q03HX016 (ip), vehicle: saline)?
Answer: 8 of 8

Question: What about the survivor count (dose: 1.0 mg/kg/injection, schedule: Q01DX001 (ip), vehicle: saline) of the same molecule?
Answer: 8 of 8

Question: And the survivor count (dose: 1.0 mg/kg/injection, schedule: Q01DX009 (ip), vehicle: saline)?
Answer: 8 of 8

Question: What about the survivor count (dose: 1.0 mg/kg/injection, schedule: Q01DX009 (sc), vehicle: saline) of the same molecule?
Answer: 8 of 8

Question: And the survivor count (dose: 1.0 mg/kg/injection, schedule: Q03HX008 (ip), vehicle: saline)?
Answer: 8 of 8

Question: What about the survivor count [1] of the same molecule?
Answer: 8 of 8

Question: And the survivor count (dose: 1.0 mg/kg/injection, schedule: Q04DX003 (ip), vehicle: saline)?
Answer: 8 of 8

Question: What about the survivor count (dose: 1.5 mg/kg/injection, schedule: Q01DX009 (ip), vehicle: saline) of the same molecule?
Answer: 10 of 10

Question: And the survivor count (dose: 2.0 mg/kg/injection, schedule: Q01DX001 (ip), vehicle: saline)?
Answer: 8 of 8

Question: What about the survivor count (dose: 2.0 mg/kg/injection, schedule: Q01DX001 (sc), vehicle: saline) of the same molecule?
Answer: 8 of 8

Question: What about the survivor count (dose: 2.0 mg/kg/injection, schedule: Q01DX009 (ip), vehicle: saline) of the same molecule?
Answer: 8 of 8

Question: What about the survivor count (dose: 2.0 mg/kg/injection, schedule: Q01DX009 (oral), vehicle: saline) of the same molecule?
Answer: 8 of 8

Question: What about the survivor count (dose: 2.0 mg/kg/injection, schedule: Q01DX009 (sc), vehicle: saline) of the same molecule?
Answer: 8 of 8

Question: And the survivor count (dose: 2.0 mg/kg/injection, schedule: Q03HX008 (ip), vehicle: saline)?
Answer: 7 of 8

Question: What about the survivor count [2] of the same molecule?
Answer: 8 of 8

Question: What about the survivor count (dose: 2.0 mg/kg/injection, schedule: Q04DX003 (ip), vehicle: saline) of the same molecule?
Answer: 8 of 8

Question: What about the survivor count (dose: 2.0 mg/kg/injection, schedule: Q08DX002 (ip), vehicle: saline) of the same molecule?
Answer: 8 of 8

Question: And the survivor count (dose: 2.2 mg/kg/injection, schedule: Q01DX009 (ip), vehicle: saline)?
Answer: 10 of 10

Question: What about the survivor count (dose: 2.6 mg/kg/injection, schedule: Q01DX009 (ip), vehicle: saline) of the same molecule?
Answer: 10 of 10

Question: What about the survivor count (dose: 4.0 mg/kg/injection, schedule: Q01DX001 (ip), vehicle: saline) of the same molecule?
Answer: 8 of 8

Question: And the survivor count (dose: 4.0 mg/kg/injection, schedule: Q01DX001 (oral), vehicle: saline)?
Answer: 8 of 8

Question: And the survivor count (dose: 4.0 mg/kg/injection, schedule: Q01DX001 (sc), vehicle: saline)?
Answer: 8 of 8

Question: And the survivor count (dose: 4.0 mg/kg/injection, schedule: Q01DX009 (ip), vehicle: saline)?
Answer: 10 of 10 and 8 of 8

Question: And the survivor count (dose: 4.0 mg/kg/injection, schedule: Q01DX009 (oral), vehicle: saline)?
Answer: 8 of 8

Question: What about the survivor count (dose: 4.0 mg/kg/injection, schedule: Q01DX009 (sc), vehicle: saline) of the same molecule?
Answer: 8 of 8

Question: And the survivor count (dose: 4.0 mg/kg/injection, schedule: Q04DX003 (ip), vehicle: saline)?
Answer: 8 of 8

Question: And the survivor count (dose: 4.0 mg/kg/injection, schedule: Q08DX002 (ip), vehicle: saline)?
Answer: 8 of 8

Question: What about the survivor count (dose: 4.4 mg/kg/injection, schedule: Q01DX001 (ip), vehicle: saline) of the same molecule?
Answer: 10 of 10 (2×)

Question: What about the survivor count (dose: 6.7 mg/kg/injection, schedule: Q01DX001 (ip), vehicle: saline) of the same molecule?
Answer: 10 of 10 (2×)

Question: What about the survivor count (dose: 8.0 mg/kg/injection, schedule: Q01DX001 (ip), vehicle: saline) of the same molecule?
Answer: 8 of 8

Question: What about the survivor count (dose: 8.0 mg/kg/injection, schedule: Q01DX001 (oral), vehicle: saline) of the same molecule?
Answer: 8 of 8

Question: What about the survivor count (dose: 8.0 mg/kg/injection, schedule: Q01DX001 (sc), vehicle: saline) of the same molecule?
Answer: 8 of 8

Question: What about the survivor count (dose: 8.0 mg/kg/injection, schedule: Q01DX009 (oral), vehicle: saline) of the same molecule?
Answer: 7 of 8

Question: And the survivor count [3]?
Answer: 8 of 8

Question: And the survivor count [4]?
Answer: 8 of 8

Question: And the survivor count (dose: 10.0 mg/kg/injection, schedule: Q01DX001 (ip), vehicle: saline)?
Answer: 9 of 10 and 10 of 10

Question: What about the survivor count (dose: 16.0 mg/kg/injection, schedule: Q01DX001 (ip), vehicle: saline) of the same molecule?
Answer: 6 of 8

Question: And the survivor count (dose: 16.0 mg/kg/injection, schedule: Q01DX001 (oral), vehicle: saline)?
Answer: 8 of 8

Question: And the survivor count (dose: 16.0 mg/kg/injection, schedule: Q01DX001 (sc), vehicle: saline)?
Answer: 8 of 8

Question: And the survivor count [5]?
Answer: 8 of 8

Question: What about the survivor count [6] of the same molecule?
Answer: 6 of 8

Question: And the survivor count (dose: 32.0 mg/kg/injection, schedule: Q01DX001 (oral), vehicle: saline)?
Answer: 8 of 8

Question: What about the survivor count (dose: 125.0 micrograms/kg/injection, schedule: Q03HX024 (ip), vehicle: saline) of the same molecule?
Answer: 8 of 8

Question: And the survivor count (dose: 250.0 micrograms/kg/injection, schedule: Q03HX024 (ip), vehicle: saline)?
Answer: 7 of 8

Question: What about the survivor count (dose: 500.0 micrograms/kg/injection, schedule: Q03HX024 (ip), vehicle: saline) of the same molecule?
Answer: 8 of 8

Question: And the survivor count (dose: 1000.0 micrograms/kg/injection, schedule: Q03HX024 (ip), vehicle: saline)?
Answer: 8 of 8
